Laboratory results as given in patent US20120190620A1, “METHODS TO IDENTIFY TARGETS AND MOLECULES REGULATING PURINOSOMES AND THEIR USES” (priority 2010, published 2012).

System: HeLa cells
Experiment: Purinosome dynamics DMR screen, sequential order molecule, DMAT, TBB
Type: cell-based, human
Description: A library of agonists for various different GPCRs were used to individually pretreat a confluent layer of Hela cells for about one hour, before sequential stimulation with DMAT and TBB, respectively. The responses were monitored using Epic® system.
A library of molecules targeting endogenous alpha2A and beta2 adrenergic receptors were used to individually pretreat a confluent layer of Hela cells for about one hour, before sequential stimulation with DMAT and TBB, respectively. The responses were monitored using Epic® system.
Epic® wavelength interrogation system (Corning Inc., Corning, N.Y.) was used for whole cell sensing. This system consists of a temperature-control unit, an optical detection unit, and an on-board liquid handling unit with robotics. […]
For biosensor cellular assays, compound solutions were made by diluting the stored concentrated solutions with the HBSS (1× Hanks balanced salt solution, plus 20 mM Hepes, pH 7.1), and transferred into a 384 well polypropylene compound storage plate to prepare a compound source plate. […] Both the cell assay plate and the compound source plate(s) were then incubated in the hotel of the reader system. After incubation the baseline wavelengths of all biosensors in the cell assay microplate were recorded and normalized to zero. […]

Structure (SMILES): COc1ccc(CC(C)NCC(O)c2ccc(O)c(NC=O)c2)cc1 (stereo not shown) [formoterol]
- modulation of the DMAT signal: specifically suppress
